From publication PMC9469108 come the findings set out here.

Chains of the proteins cited; added tags and fusions are not shown.
UniProt Q39255: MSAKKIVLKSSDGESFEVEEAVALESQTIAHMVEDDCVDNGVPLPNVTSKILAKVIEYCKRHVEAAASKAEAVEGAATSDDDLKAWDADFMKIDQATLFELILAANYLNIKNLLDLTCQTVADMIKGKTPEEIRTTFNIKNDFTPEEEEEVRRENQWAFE

The assay deals with ARABIDOPSIS SKP1-LIKE1 (ASK1) with a C-terminal FLAG tag (Arabidopsis thaliana) (UniProt Q39255). In words: affinity purification with mass spectrometry; Co-IP with an anti-FLAG antibody from lysates of inflorescences (closed buds and young flowers) of ask1-1 plants complemented with ASK1:ASK1-FLAG; SDS-PAGE gel slices, trypsin digestion, LC-MS/MS; four independent experiments.

No constants are given. Whether binding was seen depends on the method and setting. Binding seen in cells or lysates may run through a third protein. These calls come from enrichment with a bait or labelling near it, and not all partners need be listed.

B1: SKIP22 (protein, UniProt Q9ZUB8 1-475)
chain: MKLRLRHHETRETLKLELADADTLHDLRRRINPTVPSSVHLSLNRKDELITPSPEDTLRSLGLISGDLIYFSLEAGESSNWKLRDSETVASQSESNQTSVHDSIGFAEVDVVPDQAKSNPNTSVEDPEGDISGMEGPEPMDVEQLDMELAAAGSKRLSEPFFLKNILLEKSGDTSELTTLALSVHAVMLESGFVLLNHGSDKFNFSKELLTVSLRYTLPELIKSKDTNTIESVSVKFQNLGPVVVVYGTVGGSSGRVHMNLDKRRFVPVIDLVMDTSTSDEEGSSSIYREVFMFWRMVKDRLVIPLLIGICDKAGLEPPPCLMRLPTELKLKILELLPGVSIGNMACVCTEMRYLASDNDLWKQKCLEEVNNFVVTEAGDSVNWKARFATFWRQKQLAAASDTFWRQNQLGRRNISTGRSGIRFPRIIGDPPFTWFNGDRMHGSIGIHPGQSARGLGRRTWGQLFTPRCNLGGLN
Take B1: the binding result was “binds”.
